{
  "source": "patent US9845482B2",
  "about": "“Compositions and methods for enhancing bioenergetic status in female germ cells” (The General Hospital Corporation, priority 2011, dated 2017)",
  "key": {"OSCs from mice": {"system": "OSCs from mice", "experiment": "Screen of mouse OSCs for compounds that enhance mitochondrial function (mtDNA, ATP, mitochondrial mass, membrane potential, gene expression)", "assay_type": "cell-based", "conditions": "24 hours", "description": "Female infertility due to chemotherapy, aging and premature ovarian failure (POF) is due in part to a decline in mitochondrial function in oocytes and OSCs. Accordingly, OSCs from mice were used to screen for small compounds that enhance mitochondrial function (“bioenergetic status”) in female germline cells. Assays for enhancing mitochondrial function included mtDNA content, ATP, NAD+/NADH, mitochondrial mass, mitochondrial membrane potential, and gene expression of known mitochondrial mass regulators and electron transport chain components.\nAll the compounds were dissolved in DMSO. […]\nMitochondrial membrane potential was measured with a fluorescent probe, Tetramethylrhodamine methyl ester (TMRM) (Sigma) as described before (Rolo A. P. Biochim. Biophys. Acta 2003 1637: 127-132). […] Cell suspensions (200 μl containing 10^5 cells) were loaded into 96-well plates and fluorescence measured using excitation and emission wavelengths of 485 and 590 nm, respectively. […]\nATP content was measured using a luciferase-based assay with a commercial kit according to the manufacturer's instructions (Roche Applied Science, Penzberg, Germany) and normalized to protein content in each sample.\nMitochondrial mass was evaluated using the fluorescent probe N-nonyl acridine orange (NAO), briefly the cells were incubated in culture media containing 10 nM of NAO for 30 minutes at 37° C. in the dark. […]"}, "Mouse OSCs": {"system": "Mouse OSCs", "experiment": "NAD+ and NADH levels in mouse OSCs treated with mitochondrial enhancers", "assay_type": "cell-based", "conditions": "24 hours", "procedure": "FIG. 35 depicts levels of NAD+ (A) and NADH (B) in OSCs treated with mitochondrial enhancers. Mouse OSCs maintained in culture (Zou et al., Nat Cell Biol 2009 11:631-636) were exposed to the indicated test compounds for 24 hours and then assessed for levels of NAD+ and NADH. Female infertility due to chemotherapy, aging and premature ovarian failure (POF) is due in part to a decline in mitochondrial function in oocytes and OSCs. Accordingly, OSCs from mice were used to screen for small compounds that enhance mitochondrial function (“bioenergetic status”) in female germline cells. Assays for enhancing mitochondrial function included mtDNA content, ATP, NAD+/NADH, mitochondrial mass, mitochondrial membrane potential, and gene expression of known mitochondrial mass regulators and electron transport chain components. All the compounds were dissolved in DMSO. For screening purposes the cells were treated with the vehicle (0.001% DMSO) or with 25 or 50 μM of each compound (except for berberine, which the concentrations used for the screen were 5 μM and 25 μM) for 24 hours. For validation of the top 6 hits, cells were treated with vehicle (0.001% DMSO) or either 5 or 25 μM of each compound for 24 hours. For the gene expression profile, the cells were treated with the concentration that was considered to work better in the previous validation assays."}},
  "note": "For at least one compound, name, drawing or mass did not settle the structure.",
  "data": [
    {"smiles": "COc1ccc2cc3[n+](cc2c1OC)CCc1cc2c(cc1-3)OCO2", "note": "[berberine, 9,10-dimethoxy-5,6-dihydro[1,3]dioxolo[4,5-g]isoquino[3,2-a]isoquinolin-7-ium]", "values": [
      {"measurement": "mitochondrial parameters", "setting": "OSCs from mice", "value": "increase mitochondrial parameters in a beneficial way"},
      {"measurement": "activity above the baseline (DMSO alone), scored as a positive result", "setting": "OSCs from mice; 25 or 50 μM (berberine 5 μM and 25 μM)", "value": "activity above the baseline"},
      {"measurement": "NAD^+ levels", "setting": "Mouse OSCs", "value": "raise"}
    ]}
  ]
}
